Results of single-concentration screens

Chains of the proteins cited; added tags and fusions are not shown. Residues count along the entry.
UniProt Q4DA54, 1-478: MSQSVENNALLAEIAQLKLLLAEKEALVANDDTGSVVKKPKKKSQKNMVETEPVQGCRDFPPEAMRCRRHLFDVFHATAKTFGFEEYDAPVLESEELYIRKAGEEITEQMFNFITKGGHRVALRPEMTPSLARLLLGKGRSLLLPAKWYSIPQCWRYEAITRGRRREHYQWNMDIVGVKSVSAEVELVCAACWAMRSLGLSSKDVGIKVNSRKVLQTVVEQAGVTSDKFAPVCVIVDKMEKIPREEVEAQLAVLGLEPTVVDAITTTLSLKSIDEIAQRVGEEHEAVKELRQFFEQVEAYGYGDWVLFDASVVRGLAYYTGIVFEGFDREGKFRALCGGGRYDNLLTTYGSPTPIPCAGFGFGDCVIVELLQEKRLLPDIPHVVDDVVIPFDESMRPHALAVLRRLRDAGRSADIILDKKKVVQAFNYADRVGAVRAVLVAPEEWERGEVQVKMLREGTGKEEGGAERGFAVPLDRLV
UniProt P9WNZ1, whole entry: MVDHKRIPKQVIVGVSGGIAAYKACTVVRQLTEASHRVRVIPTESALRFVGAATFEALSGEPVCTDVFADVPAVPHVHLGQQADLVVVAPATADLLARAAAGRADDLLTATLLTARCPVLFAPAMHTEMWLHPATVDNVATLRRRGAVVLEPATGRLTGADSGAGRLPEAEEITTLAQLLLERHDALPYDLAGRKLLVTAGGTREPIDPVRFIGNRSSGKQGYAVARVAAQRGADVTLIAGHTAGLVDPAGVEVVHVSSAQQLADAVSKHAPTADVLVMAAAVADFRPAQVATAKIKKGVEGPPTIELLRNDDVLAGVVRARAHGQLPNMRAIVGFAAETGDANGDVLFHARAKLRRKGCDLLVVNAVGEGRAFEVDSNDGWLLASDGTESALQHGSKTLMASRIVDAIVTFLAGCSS

Toxoplasma: 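Assay of Toxoplasma gondii numbers, read through their beta-galactosidase reporter with a colour substrate. Tested at 10 µM. Higher reads as fewer parasites (inferred from which compounds were picked for retests). Of about 67,000 compounds tested this way, about 260 (0.38%) reached 50% or more in at least one test.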
TcHisRS: 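Histidine-tRNA ligase, Trypanosoma cruzi CL Brener (UniProt Q4DA54). Enzyme assay of histidyl-tRNA synthetase; the read-out is not stated. Compounds at 30 µM. The record gives no direction; compounds that gave an IC50 in retests scored well above the rest, so higher reads as stronger inhibition. Size under these conditions: about 69,000 compounds, about 31 of them at 50% or above in at least one test.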
CoaBC: 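Enzyme assay of CoaBC with a phosphate dye (Biomol Green) read at 650 nm. Target: Coenzyme A biosynthesis protein CoaBC, Mycobacterium tuberculosis (UniProt P9WNZ1). Compounds at 30 µM. Higher reads as stronger inhibition, judged from the few compounds that gave an IC50. Most strong results did not repeat in a second test. Of about 67,000 compounds tested this way, about 40 (0.06%) reached 50% or more in at least one test.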
Leishmania in macrophages: 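Cell assay of Leishmania donovani living inside macrophages; the read-out is not stated. Compounds at 30 µM. The record gives no direction; compounds that gave an IC50 in retests scored well above the rest, so higher reads as stronger inhibition. Size under these conditions: about 69,000 compounds, about 1,000 of them at 50% or above in at least one test.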

Results are given as percent effect.
The controls that fix the scale are not given in the record; negative values are as filed.
This is an unselected part of the compounds tested.
Two or more numbers in one place are separate tests of the same structure; such repeats can differ widely.
A dash means the value is not listed here; it may have been measured.

| compound | Toxoplasma | TcHisRS | CoaBC | Leishmania in macrophages |
|---|---|---|---|---|
| `CCC(O)Cn1cc(C2=CCN(Cc3ccc(OC)cc3)CC2)cn1` (configuration not stated) | -33.23% | 4.372% | 12.96% | 22.2% |
| `Cc1nn(C)c(C)c1C1CCCN1C(=O)c1cnc2n[nH]c(C)c2c1` (configuration not stated) | 8.401% | -0.3831% | 13.49% | 5.209% |
| `Cc1noc(NCc2cn(C)nc2-c2cccnc2)n1` | - | 6.931% | -0.6075% | 28.52% |
| `COc1cc(C)nc(N2CCN(C(C)c3nc(C)no3)CC2)n1` (configuration not stated) | -2.283% | 9.211% | - | 10.62% |
| `CN(CCS(=O)(=O)c1cc(Cl)ccc1Cl)CC(=O)Nc1cccc(F)c1` | -1.418% | 2.463% | 3.797% | 14.97% |
| `CCOc1cccc2c1OCC(C(=O)NS(=O)(=O)c1ccc(Cl)s1)=C2` | 6.404% | -10.6% | -3.106% | -19.86% |
| `COCCN1CCO[C@@H]2CN(Cc3ccc(C)o3)C[C@@H]2C1` | - | 7.595% | - | - |
| `CCCN(CCc1ccccn1)C(=O)CCc1cnn(C)c1` | -3.384% | 2.488% | -4.642% | 12.63% |
| `O=C(CN1CCC(c2cccc(F)c2)C1)NCc1ccco1` (configuration not stated) | -4.658% | 2.662% | 2.926% | -11.6% |
| `CCCc1nc(C(=O)N[C@H]2COC[C@@H]2N2CCN(C)CC2)cs1` | -3.99% | 11.06% | 7.443% | 10.27% |
| `CCOC[C@@H]1CC[C@H]2[C@H](CCN2C(=O)c2ccncc2F)O1` | - | 0.9346% | -0.7407% | - |
| `CN(C)C1(CNc2nccc(-c3cnn(C)c3)n2)CCSC1` (configuration not stated) | 1.577% | 4.372% | 1.961% | 2.909% |
| `Cc1ccc(C(=O)NC2CCN(Cc3cccc4c3OCCO4)CC2)s1` | -18.98% | 7.324% | 7.761% | 17.75% |
| `Cc1ccccc1Oc1ncccc1CNC(=O)Cn1cccnc1=O` | -33.41% | 10.3% | 2.19% | 18.9% |
| `O=C(O)C(F)(F)F.[H][C@@]12CO[C@H](CNS(C)(=O)=O)[C@]1([H])CCN(Cc1ccsc1)C2` | 13.52% | - | - | 3.393% |
| `[H][C@]12CC[C@]([H])(CN(Cc3[nH]cnc3C)C1)N(C(=O)CCc1cccnc1)C2` | -10.16% | - | - | 5.963% |
| `CCS(=O)(=O)NCc1nc(C)cc(N2CCCCC2)n1` | -17.85% | 0.5291% | 2.584% | 24.09% |
| `Cc1c(C(C)NC(=O)C2CCCC2)cnn1C` (configuration not stated) | 8.526% | 2.632% | -2.428% | 20.04% |
| `Cc1noc(-c2ccc(Oc3cccc(CN4CCCC4)c3F)nc2)n1` | -31.15% | -0.8% | -11.04% | -25.72% |
| `Cn1ccc2c(-c3nccc(N)n3)ccnc21` | 11.53% | 0% | 3.659% | 23.55% |
| `O=c1oc(-c2ccc(F)cc2)nn1CCc1ccccn1` | -17.03% | 4.124% | 1.222% | 9.844% |
| `CSc1ccc(CNCCS(=O)(=O)N2CCOCC2)cc1` | 11.71% | 5.155% | 3.423% | 34.9% |
| `CC(C)(C)c1cc(NC(=O)C2CCCO2)n(-c2ccccn2)n1` (configuration not stated) | -2.07% | 6.383% | 1.205% | 9.94% |
| `COc1ccccc1OCCNS(=O)(=O)N1CCOCC1` | 0.09074% | 1.01% | 4.04% | 3.13% |
| `CN(CCO)Cc1nnc(C2CCN(C(=O)c3cccn3C)CC2)n1C` | -0.05516% | 11.17% | 2.057% | -9.171% |
| `CC(C)CCn1ccc(NC(=O)N2CCCC2C(C)(C)O)n1` (configuration not stated) | -0.7956% | 1.657% | 5.357% | 14.54% |
| `CN(C)C(=O)c1n[nH]c2c1CN(CC1CCCCC1)C2.O=C(O)C(F)(F)F.O=C(O)C(F)(F)F` | 9.214% | - | - | 14.17% |
| `Fc1cnc(N2CC[C@@H]3OC(COCc4cccnc4)CC[C@@H]32)nc1` (some centres not stated) | - | 13.79% | -2.648% | - |
| `CCC[C@@H]1CN(Cc2cc(C#N)n(C)c2C)C[C@H]1NS(C)(=O)=O` | -0.3446% | -3.704% | 12.92% | 10.22% |
| `CCS(=O)(=O)N1CCCC2(CCCN2C(=O)c2cscn2)C1` (configuration not stated) | -3.725% | -11.83% | -8.211% | 9.034% & 16.95% |
| `COCCN1CCCn2cnc(CN(C)C(C)C)c2C1.O=C(O)C(F)(F)F.O=C(O)C(F)(F)F` | -6.814% | - | - | 5.032% |
| `CCOc1nnc(CN(C)CC2CCCN2c2cccnn2)s1` (configuration not stated) | 0.1508% | 1.087% | 10.93% | 16.89% |
| `CC(C)c1ncncc1C(=O)NCCN1CCCS1(=O)=O` | -9.098% | 0.7634% | 3.368% | -1.481% |
| `O=C(C1CCCO1)N1CCC(O)(Cn2ccc3ccncc32)CC1` (configuration not stated) | -11.96% | 1.498% | -0.6196% | -11.2% |
| `Cc1c(CN2CCc3nc4sccc4c(=O)n3CC2)cnn1C` | - | 6.571% | 5.936% | - |
| `COC(=O)[C@H]1CN(S(C)(=O)=O)CCN1S(C)(=O)=O` | 0.4891% | 13.86% | 9.707% | -16.91% |
| `CN1CCN(c2ccnc3c(F)cc(Br)cc23)CC1` | -31.7% | 8.333% | -1.946% | -9.529% |
| `CCS(=O)(=O)NCC1OCCc2cn(CC3CCOCC3)nc21` (configuration not stated) | 3.835% | -1.149% | 10.79% | 18.33% |

From ChEMBL document CHEMBL3988442, “University of Dundee, Small-Polar-MMV Screening Library” (2021).